Measurements reported in US8377942B2, “Isoxazolines derivatives and their use as pesticide” (Novartis AG, priority 2008, dated 2013).
Some results were stated once for a whole list of compounds, not compound by compound.

Key:
[1] = tested on: Rhipicephalus sanguineus (dog tick); assay: Activity in vitro against Rhipicephalus sanguineus (dog tick), adult tick contact test; conditions: at 640 ppm; 10 minutes contact, then 7 days at 28° C. and 80% relative humidity
[2] = tested on: Ctenocephalides felis (cat flea); assay: Activity against Ctenocephalides felis (cat flea), artificial feeding on treated blood, 96-well plate; format: in vivo; conditions: at 100 ppm; mixed adult fleas fed on treated blood for 24 hours

Compound | efficacy (EC80), acaricidal activity (dead adult ticks) [1] | efficacy (EC80), insecticidal activity (dead fleas) [2]
FC(F)(F)Cn1cc(-c2ccc(C3=NOC(c4cc(Cl)cc(Cl)c4)(C(F)(F)F)C3)c3ccccc23)cn1 (stereo not shown) [Compound 1.18, 5-(3,5-dichloro-phenyl)-3-{4-[1-(2,2,2-trifluoro-ethyl)-1H-pyrazol-4-yl]-naphthalen-1-yl}-5-trifluoromethyl-4,5-dihydro-isoxazole] | more than 80% | more than 80%
CC(C)(C)OC(=O)n1cc(-c2ccc(C3=NOC(c4cc(Cl)cc(Cl)c4)(C(F)(F)F)C3)c3ccccc23)cn1 (stereo not shown) [Compound 1.10, 4-{4-[5-(3,5-dichloro-phenyl)-5-trifluoromethyl-4,5-dihydro-isoxazol-3-yl]-naphthalen-1-yl}-pyrazole-1-carboxylic acid tert-butyl ester] |  | more than 80%
FC(F)(F)C1(c2cc(Cl)cc(Cl)c2)CC(c2ccc(-c3cn[nH]c3)c3ccccc23)=NO1 (stereo not shown) [Compound 1.17, 5-(3,5-dichloro-phenyl)-3-[4-(1H-pyrazol-4-yl)-naphthalen-1-yl]-5-trifluoromethyl-4,5-dihydro-isoxazole] | more than 80% | more than 80%
FC(F)(F)C1(c2cc(Cl)cc(Cl)c2)CC(c2ccc(-n3cncn3)c3ccccc23)=NO1 (stereo not shown) [Compound 1.1, 1-{4-[5-(3,5-dichloro-phenyl)-5-trifluoromethyl-4,5-dihydro-isoxazol-3-yl]-naphthalen-1-yl}-1H-[1,2,4]triazole] | more than 80% | more than 80%
